Results published in PubChem BioAssay AID248 (DTP/NCI, 2004).
The list does not hold the whole screen: its compounds were picked by chemical class. Not every dose and run of a compound is shown. T/C is the treated group as % of the vehicle group. Some doses have a count of surviving animals in place of a T/C: the source holds a T/C of zero for them, seemingly a mark for toxic or unscored doses. Some doses without a T/C left all or most animals alive at the check, yet need not have been tolerated: survival well below the control is almost never listed, so the zero probably covers shortened survival too. Counts of survivors are from the toxicity check (mostly the fifth day) where no day follows; animals may have died later. Schedules are NCI's codes, taken here to give the interval after Q, in days (D) or hours (H), and the number of doses after X. Some schedule codes hold Z or #, which are not explained here. Some entries were tested several times; their values stand side by side, smallest first. Some metal complexes and salts are drawn in pieces, as in the source, so charges may not balance. Where survival is the endpoint, this PubChem deposit counts one and a half times the control or more as active, and values a quarter to a half above the control carry no call in these data; other NCI protocols may use other cut-offs. Some T/C values carry the count of animals alive at the toxicity check (mostly the fifth day); without a count or a note in brackets, all were alive then.

System: L1210 leukemia ip in BDF1 mice, survival T/C
Experiment: NCI In Vivo Anticancer Drug Screen. Data for tumor model L1210 Leukemia (intraperitoneal) in B6D2F1 (BDF1) mice
Details: T/C endpoint: mean survival time, higher T/C = longer survival
[1] = dose: 50.0 mg/kg/injection, schedule: Q01DX001 (ip), vehicle: carboxymethylcellulose (CMC)
[2] = dose: 100.0 mg/kg/injection, schedule: Q01DX001 (ip), vehicle: carboxymethylcellulose (CMC)
[3] = dose: 200.0 mg/kg/injection, schedule: Q01DX001 (ip), vehicle: carboxymethylcellulose (CMC)
[4] = dose: 400.0 mg/kg/injection, schedule: Q01DX001 (ip), vehicle: carboxymethylcellulose (CMC)
[5] = dose: 25.0 mg/kg/injection, schedule: Q01DX001 (ip), vehicle: saline
[6] = dose: 100.0 mg/kg/injection, schedule: Q01DX001 (ip), vehicle: saline
[7] = dose: 200.0 mg/kg/injection, schedule: Q01DX001 (ip), vehicle: saline
[8] = dose: 400.0 mg/kg/injection, schedule: Q01DX001 (ip), vehicle: saline
[9] = dose: 100.0 mg/kg/injection, schedule: Q04DX003 (ip), vehicle: saline with Tween-80
[10] = dose: 200.0 mg/kg/injection, schedule: Q04DX003 (ip), vehicle: saline with Tween-80
[11] = dose: 400.0 mg/kg/injection, schedule: Q04DX003 (ip), vehicle: saline with Tween-80
[12] = dose: 0.6 mg/kg/injection, schedule: Q01DX Z (ip), vehicle: methylcellulose (MC)
[13] = dose: 5.0 mg/kg/injection, schedule: Q01DX001 (ip), vehicle: saline
[14] = dose: 10.0 mg/kg/injection, schedule: Q01DX001 (ip), vehicle: saline
[15] = dose: 20.0 mg/kg/injection, schedule: Q01DX001 (ip), vehicle: saline
[16] = dose: 40.0 mg/kg/injection, schedule: Q01DX001 (ip), vehicle: saline
[17] = dose: 80.0 mg/kg/injection, schedule: Q01DX001 (ip), vehicle: saline
[18] = dose: 100.0 mg/kg/injection, schedule: Q01DX009 (ip), vehicle: saline with Tween-80

Which T/C (dose: 9.38 mg/kg/injection, schedule: Q01DX009 (ip), vehicle: saline) does the source give for `ClCC1CS1` (stereo not given) here?
Its T/C is 106 % of control.

What about the T/C (dose: 18.75 mg/kg/injection, schedule: Q01DX009 (ip), vehicle: saline) of the same compound?
The T/C was 101 % of control.

And the T/C (dose: 20.0 mg/kg/injection, schedule: Q01DX Z (ip), vehicle: methylcellulose (MC))?
Its T/C is 120 % of control [5 of 6 alive].

What about the T/C (dose: 30.0 mg/kg/injection, schedule: Q01DX Z (ip), vehicle: methylcellulose (MC)) of the same compound?
Its T/C is 98 and 117 % of control.

What about the T/C (dose: 37.5 mg/kg/injection, schedule: Q01DX009 (ip), vehicle: saline sonified) of the same compound?
Its T/C is 128 % of control.

What about the T/C (dose: 37.5 mg/kg/injection, schedule: Q01DX009 (ip), vehicle: saline) of the same compound?
The T/C was 114 % of control.

And the T/C (dose: 44.0 mg/kg/injection, schedule: Q01DX Z (ip), vehicle: methylcellulose (MC))?
Its T/C is 117 % of control.

What about the T/C (dose: 45.0 mg/kg/injection, schedule: Q01DX Z (ip), vehicle: methylcellulose (MC)) of the same compound?
The T/C was 127 % of control.

What about the T/C [1] of the same compound?
The T/C was 101 % of control.

And the T/C (dose: 66.0 mg/kg/injection, schedule: Q01DX Z (ip), vehicle: methylcellulose (MC))?
The T/C was 122 % of control.

What about the T/C (dose: 67.0 mg/kg/injection, schedule: Q01DX Z (ip), vehicle: methylcellulose (MC)) of the same compound?
Its T/C is 114 % of control [5 of 6 alive].

And the T/C (dose: 75.0 mg/kg/injection, schedule: Q01DX009 (ip), vehicle: saline sonified)?
Its T/C is 141 % of control.

What about the T/C [2] of the same compound?
Its T/C is 106 % of control.

And the T/C (dose: 100.0 mg/kg/injection, schedule: Q01DX Z (ip), vehicle: methylcellulose (MC))?
Its T/C is 95 % of control [5 of 6 alive].

And the T/C (dose: 150.0 mg/kg/injection, schedule: Q01DX009 (ip), vehicle: saline sonified)?
Its T/C is 137 % of control.

What about the T/C (dose: 150.0 mg/kg/injection, schedule: Q01DX Z (ip), vehicle: methylcellulose (MC)) of the same compound?
The T/C was 92 % of control [5 of 6 alive].

What about the T/C [3] of the same compound?
Its T/C is 106 % of control.

What about the survivor count (dose: 300.0 mg/kg/injection, schedule: Q01DX009 (ip), vehicle: saline sonified) of the same compound?
The survivor count was 2 of 6.

What about the survivor count [4] of the same compound?
The survivor count was 1 of 4.

`CC(C)=CCN1CCN(CCCl)CC1` was tested. Which T/C (dose: 25.0 mg/kg/injection, schedule: Q04DX002 (ip), vehicle: saline) did it give?
The T/C was 107 % of control.

What about the T/C (dose: 50.0 mg/kg/injection, schedule: Q04DX002 (ip), vehicle: saline) of the same compound?
The T/C was 101 % of control.

And the survivor count (dose: 100.0 mg/kg/injection, schedule: Q04DX002 (ip), vehicle: saline)?
Its survivor count is 2 of 3.

What about the survivor count (dose: 200.0 mg/kg/injection, schedule: Q04DX002 (ip), vehicle: saline) of the same compound?
The survivor count was 0 of 3.

And the survivor count (dose: 400.0 mg/kg/injection, schedule: Q04DX002 (ip), vehicle: saline)?
The survivor count was 0 of 3.

How did the T/C (dose: 6.3 mg/kg/injection, schedule: Q01DX001 (ip), vehicle: saline) turn out when `CCCC[As](=O)(O)O` was run?
Its T/C is 118 % of control.

And the T/C (dose: 12.5 mg/kg/injection, schedule: Q01DX001 (ip), vehicle: saline)?
Its T/C is 109 % of control.

And the T/C [5]?
Its T/C is 113 % of control.

And the survivor count [5]?
Its survivor count is 2 of 4.

And the survivor count (dose: 50.0 mg/kg/injection, schedule: Q01DX001 (ip), vehicle: saline)?
The survivor count was 0 of 4.

And the survivor count [6]?
Its survivor count is 0 of 4 and 1 of 4.

What about the survivor count [7] of the same compound?
The survivor count was 1 of 4.

What about the survivor count [8] of the same compound?
The survivor count was 0 of 4.

Which T/C (dose: 50.0 mg/kg/injection, schedule: Q01DX009 (ip), vehicle: other) does the source give for `CC1=C2C(=CC(C)(C)C2O)C(O)C(C)(O)C12CC2` (stereo not given) here?
Its T/C is 103 % of control.

What about the T/C (dose: 50.0 mg/kg/injection, schedule: Q04DX003 (ip), vehicle: saline with Tween-80) of the same compound?
Its T/C is 105 % of control.

And the T/C (dose: 100.0 mg/kg/injection, schedule: Q01DX009 (ip), vehicle: other)?
The T/C was 103 % of control.

And the T/C [9]?
Its T/C is 102 % of control.

What about the T/C (dose: 200.0 mg/kg/injection, schedule: Q01DX009 (ip), vehicle: other) of the same compound?
Its T/C is 132 % of control.

What about the T/C [10] of the same compound?
The T/C was 105 % of control.

What about the survivor count (dose: 400.0 mg/kg/injection, schedule: Q01DX009 (ip), vehicle: other) of the same compound?
Its survivor count is 6 of 6.

What about the T/C [11] of the same compound?
Its T/C is 104 % of control.

`O=P(NCCCl)(NCCCl)Nc1ncccn1` was tested. Which T/C (dose: 100.0 mg/kg/injection, schedule: Q01DX001 (sc), vehicle: carboxymethylcellulose (CMC)) did it give?
The T/C was 105 % of control.

And the T/C (dose: 200.0 mg/kg/injection, schedule: Q01DX001 (sc), vehicle: carboxymethylcellulose (CMC))?
Its T/C is 103 % of control.

And the T/C (dose: 400.0 mg/kg/injection, schedule: Q01DX001 (sc), vehicle: carboxymethylcellulose (CMC))?
Its T/C is 103 % of control.

`CNNC(=O)NP(=O)(NC(=O)NNC)NC(=O)NNC` was tested. Which T/C [6] did it give?
The T/C was 97 % of control.

What about the T/C [7] of the same compound?
The T/C was 92 % of control.

And the survivor count [8]?
Its survivor count is 2 of 4.

Which results are given for `OCCN(CC[OH2+])CC[OH2+].OCCN(CC[OH2+])CC[OH2+].[Ni+2].[O-][Cl+3]([O-])([O-])[O-]`?
T/C [1]: 104 % of control; survivor count [2]: 1 of 4; survivor count [3]: 0 of 4; survivor count [4]: 1 of 4

What does the source list for `NC(Cc1ccc(N(CCCl)CCCl)c(Cl)c1)C(=O)O` (stereo not given)?
T/C (dose: 0.38 mg/kg/injection, schedule: Q01DX Z (ip), vehicle: methylcellulose (MC)): 124 % of control; T/C [12]: 127 % of control; survivor count [12]: 2 of 6; T/C (dose: 0.75 mg/kg/injection, schedule: Q01DX Z (ip), vehicle: methylcellulose (MC)): 131 % of control; T/C (dose: 0.9 mg/kg/injection, schedule: Q01DX Z (ip), vehicle: methylcellulose (MC)): 111 [4 of 6 alive] and 144 % of control [5 of 6 alive]; T/C (dose: 1.3 mg/kg/injection, schedule: Q01DX Z (ip), vehicle: methylcellulose (MC)): 111 and 145 % of control [5 of 6 alive]; T/C (dose: 1.5 mg/kg/injection, schedule: Q01DX Z (ip), vehicle: methylcellulose (MC)): 131 % of control; T/C (dose: 2.0 mg/kg/injection, schedule: Q01DX Z (ip), vehicle: methylcellulose (MC)): 103 [4 of 6 alive] and 182 % of control; T/C (dose: 3.0 mg/kg/injection, schedule: Q01DX Z (ip), vehicle: methylcellulose (MC)): 154 % of control; survivor count (dose: 6.0 mg/kg/injection, schedule: Q01DX Z (ip), vehicle: methylcellulose (MC)): 5 of 6

Which T/C [13] does the source give for `CCN(CC)[P+](Oc1ccccc1)(N(CC)CC)N(CC)CC.F[P-](F)(F)(F)(F)F` here?
Its T/C is 101 % of control.

And the T/C [14]?
Its T/C is 113 % of control.

What about the T/C [15] of the same compound?
The T/C was 111 % of control.

What about the T/C [16] of the same compound?
The T/C was 105 % of control.

And the T/C [17]?
Its T/C is 103 % of control [5 of 6 alive].

And the survivor count [6]?
The survivor count was 1 of 4.

And the survivor count [7]?
Its survivor count is 0 of 4.

What about the survivor count [8] of the same compound?
The survivor count was 0 of 4.

With `CC(C)SC(OC(=O)COc1ccccc1Cl)C(Cl)(Cl)Cl` (stereo not given) as the compound, how does the T/C (dose: 25.0 mg/kg/injection, schedule: Q01DX009 (ip), vehicle: saline with Tween-80) read?
The T/C was 103 % of control.

What about the T/C (dose: 50.0 mg/kg/injection, schedule: Q01DX009 (ip), vehicle: saline with Tween-80) of the same compound?
The T/C was 97 % of control.

And the T/C [18]?
Its T/C is 103 % of control.

And the survivor count [18]?
Its survivor count is 6 of 6.

And the T/C [9]?
Its T/C is 100 % of control.

What about the T/C (dose: 200.0 mg/kg/injection, schedule: Q01DX009 (ip), vehicle: saline with Tween-80) of the same compound?
Its T/C is 95 % of control.

What about the T/C [10] of the same compound?
Its T/C is 93 % of control.

And the T/C (dose: 400.0 mg/kg/injection, schedule: Q01DX009 (ip), vehicle: saline with Tween-80)?
The T/C was 98 % of control.

What about the T/C [11] of the same compound?
The T/C was 92 % of control.

For `CC(C)([N+](=O)[O-])C(C)(C)[N+](=O)[O-]`, which T/C [13] is on record?
Its T/C is 102 % of control.

What about the T/C [14] of the same compound?
Its T/C is 102 % of control.

What about the T/C [15] of the same compound?
Its T/C is 100 % of control.

And the T/C [16]?
The T/C was 102 % of control.

What about the survivor count [17] of the same compound?
Its survivor count is 0 of 4.

What about the survivor count [6] of the same compound?
The survivor count was 1 of 4.

What about the survivor count [7] of the same compound?
Its survivor count is 0 of 4.

What about the survivor count [8] of the same compound?
The survivor count was 0 of 4.
